These are yes or no findings as the source states them, for the method shown. Binding seen in cells or lysates may run through a third protein. Binding calls can cover weak binding; strength is not graded here.
Tests used:
[1] = molecular target: T1, CER-TMP21 (SS(TMP21)-CER-TMP21) (rat) (UniProt Q63584); assay: co-IP; GFP-tag (Venus, Cerulean, YFP) pull-down with the μMACS GFP Isolation Kit from N2a cells 48 h after transient transfection; lysis, incubation and washes in 1% CHAPS, 50 mM HEPES pH 7.4, 100 mM NaCl, 2 mM CaCl2 at 4°C; eluates immunoblotted; untransfected parental cells as control; Figure 3C is a single experiment (n = 1)
T1 sequence: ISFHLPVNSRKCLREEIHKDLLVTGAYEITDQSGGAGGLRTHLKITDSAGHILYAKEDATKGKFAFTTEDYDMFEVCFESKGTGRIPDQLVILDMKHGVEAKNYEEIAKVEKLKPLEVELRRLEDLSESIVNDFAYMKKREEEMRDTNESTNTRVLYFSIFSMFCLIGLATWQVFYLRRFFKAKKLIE

[2] = molecular target: T2, CER-TMED9 (SS(lactase)-CER-TMED9) (human) (UniProt Q9BVK6); assay: as above
T2 sequence: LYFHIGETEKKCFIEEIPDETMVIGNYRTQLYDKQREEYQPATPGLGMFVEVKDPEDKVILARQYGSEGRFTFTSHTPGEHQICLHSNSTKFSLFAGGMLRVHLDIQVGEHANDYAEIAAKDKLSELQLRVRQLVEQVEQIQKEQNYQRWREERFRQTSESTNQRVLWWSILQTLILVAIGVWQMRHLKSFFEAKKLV

SNAP-FLAG-ATZ (SS(lactase)-S-FLAG-ATZ)
binding [1]: binds
binding [2]: binds
